# Measured values as given in the supplement of paper PMC8728848.
# The other results are listed elsewhere or left out.
# B1: TAL6-6LysM (Trichoderma atroviride) (protein)
# chain: AASKLGVPQPAQRDQVNCQLYAVQPNDNCIDISSKNNITYAQLLSWNPSLSSTCSNLASLNSSSICVSNPKGTFSISSNTVGATDIATTTAPVPSPTLDQTTSRCAKYYQVSDGDDCSHLTAQFAITLKDFIFLNSEVWQNCTNLELGYYYCVEPVGYISTYPGYLPTATTKPFNQTSATSLPYDGDPWARFSSNSSVIPIANGTRVDCYSYVYVKNLTENLFADCWNMASMYEITREELVLWNPSLGNDGSSGSNLSGAEASQVASSIAIPTTAPSSITTNLYTYPCTVAANISYCVALVSSTGALPTNTAPPGPHASGEISNCTAWFAPEAYDTCKSILDIFEMSFANFYKMNPSVGPDCSGLAVGTNYCVSTYPNGEDPNDDWDGDDSIPSISPTGIITPTPTQSGMVSNCNKFYDVHSNDGCSAIASSQHVDLSSLYKWNPAIKTDCSGLQASVYVCIGILTTSMSTTSKLPTTTSKPSTTSKPPTGITTPTPTQSGMVKNCNKFYDVHSGDGCSAIASSQKVNLSSFYLWNPAVKTDCSGLQASVFVCIGTLTTSMSTTTSKLPTTTSKPSTTSKPPTGIITPTPTQNGMVKNCNKFYDVHSGDGCSAIASSQKVNLSSFYLWNPAVKTDCSGLQASVFVCVGTATTTTAAGITTPTPTQSGMVSGCNKFYDVHAGDGCSAIASSQKIALSSLYKWNPAVKTDCSGLQASVYICIGVGNAAAARVTGAAASFLEQKLISEEDLNSAVDHHHHHH
# Experiments:
# Assay in all cases: glycan array binding signal (z-score within array); higher = stronger binding
# Conditions in all cases: glycan notation: IUPAC condensed, linker removed
# Gal3S(b1-4)Glc = target: Gal3S(b1-4)Glc
# In short: (§1)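 Arrays were curated from the Consortium for Functional Glycomics database, 3228 in total, and kept only where the protein sequence was available. Binding is expressed as a within-array Z-score. This score was averaged across arrays of the same protein sequence at different concentrations or buffers and across linkers, and negative values can be read as non-binding.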
# Gal3S(b1-4)Glc6S = target: Gal3S(b1-4)Glc6S
# In short: as §1
# Gal3S(b1-4)GlcNAc = target: Gal3S(b1-4)GlcNAc
# In short: as §1
# [1] = target: Gal3S(b1-4)[Fuc(a1-3)]Glc6S
# In short: as §1
# [2] = target: Gal3S(b1-4)[Fuc(a1-3)]GlcNAc
# In short: as §1
# [3] = target: Gal3S(b1-4)[Fuc(a1-3)]GlcNAc6S
# In short: as §1
# Gal3S4S(b1-4)GlcNAc = target: Gal3S4S(b1-4)GlcNAc
# In short: as §1
# Gal3S6S(b1-4)GlcNAc = target: Gal3S6S(b1-4)GlcNAc
# In short: as §1
# Gal3S6S(b1-4)GlcNAc6S = target: Gal3S6S(b1-4)GlcNAc6S
# In short: as §1
# Gal4S(b1-4)GlcNAc = target: Gal4S(b1-4)GlcNAc
# In short: as §1
# Gal4S6S(b1-4)GlcNAc = target: Gal4S6S(b1-4)GlcNAc
# In short: as §1
# Gal6P(b1-4)GlcNAc = target: Gal6P(b1-4)GlcNAc
# In short: as §1
# Gal6S(b1-3)GlcNAc = target: Gal6S(b1-3)GlcNAc
# In short: as §1
# Gal6S(b1-3)GlcNAc6S = target: Gal6S(b1-3)GlcNAc6S
# In short: as §1
# Gal6S(b1-4)Glc = target: Gal6S(b1-4)Glc
# In short: as §1
# Gal6S(b1-4)Glc6S = target: Gal6S(b1-4)Glc6S
# In short: as §1
# Gal6S(b1-4)GlcNAc = target: Gal6S(b1-4)GlcNAc
# In short: as §1
# Gal6S(b1-4)GlcNAc6S = target: Gal6S(b1-4)GlcNAc6S
# In short: as §1
# GalNAc(a1-3)Gal = target: GalNAc(a1-3)Gal
# In short: as §1
# GalNAc(a1-3)GalNAc = target: GalNAc(a1-3)GalNAc
# In short: as §1
# [4] = target: GalNAc(a1-3)GalNAc(b1-3)Gal(a1-4)Gal(b1-4)Glc
# In short: as §1
# [5] = target: GalNAc(a1-3)GalNAc(b1-3)Gal(a1-4)Gal(b1-4)GlcNAc
# In short: as §1
# GalNAc(b1-3)Gal = target: GalNAc(b1-3)Gal
# In short: as §1
# [6] = target: GalNAc(b1-3)Gal(a1-4)Gal(b1-4)GlcNAc
# In short: as §1
# [7] = target: GalNAc(b1-3)Gal(a1-4)Gal(b1-4)GlcNAc(b1-3)Gal(b1-4)Glc
# In short: as §1
# [8] = target: GalNAc(b1-3)Gal(a1-6)Gal(b1-4)Glc
# In short: as §1
# GalNAc(b1-3)GalNAc = target: GalNAc(b1-3)GalNAc
# In short: as §1
# GalNAc(b1-3)GlcNAc = target: GalNAc(b1-3)GlcNAc
# In short: as §1
# GalNAc(b1-4)Gal(b1-4)Glc = target: GalNAc(b1-4)Gal(b1-4)Glc
# In short: as §1
# GalNAc(b1-4)GlcNAc = target: GalNAc(b1-4)GlcNAc
# In short: as §1
binder,measurement,setting,value
B1,glycan array binding signal (z-score),Gal3S(b1-4)Glc,-0.868
same,glycan array binding signal (z-score),Gal3S(b1-4)Glc6S,1.86
same,glycan array binding signal (z-score),Gal3S(b1-4)GlcNAc,0.434
same,glycan array binding signal (z-score),[1],2.96
same,glycan array binding signal (z-score),[2],-0.685
same,glycan array binding signal (z-score),[3],0.703
same,glycan array binding signal (z-score),Gal3S4S(b1-4)GlcNAc,-0.547
same,glycan array binding signal (z-score),Gal3S6S(b1-4)GlcNAc,2.51
same,glycan array binding signal (z-score),Gal3S6S(b1-4)GlcNAc6S,3
same,glycan array binding signal (z-score),Gal4S(b1-4)GlcNAc,0.093
same,glycan array binding signal (z-score),Gal4S6S(b1-4)GlcNAc,0.716
same,glycan array binding signal (z-score),Gal6P(b1-4)GlcNAc,-1.32
same,glycan array binding signal (z-score),Gal6S(b1-3)GlcNAc,-0.839
same,glycan array binding signal (z-score),Gal6S(b1-3)GlcNAc6S,-1.52
same,glycan array binding signal (z-score),Gal6S(b1-4)Glc,0.457
same,glycan array binding signal (z-score),Gal6S(b1-4)Glc6S,0.948
same,glycan array binding signal (z-score),Gal6S(b1-4)GlcNAc,0
same,glycan array binding signal (z-score),Gal6S(b1-4)GlcNAc6S,-0.018
same,glycan array binding signal (z-score),GalNAc(a1-3)Gal,2.44
same,glycan array binding signal (z-score),GalNAc(a1-3)GalNAc,-1.35
same,glycan array binding signal (z-score),[4],0.454
same,glycan array binding signal (z-score),[5],-0.794
same,glycan array binding signal (z-score),GalNAc(b1-3)Gal,1.28
same,glycan array binding signal (z-score),[6],-0.315
same,glycan array binding signal (z-score),[7],0.376
same,glycan array binding signal (z-score),[8],-0.542
same,glycan array binding signal (z-score),GalNAc(b1-3)GalNAc,-0.84
same,glycan array binding signal (z-score),GalNAc(b1-3)GlcNAc,-0.241
same,glycan array binding signal (z-score),GalNAc(b1-4)Gal(b1-4)Glc,0.273
same,glycan array binding signal (z-score),GalNAc(b1-4)GlcNAc,1.07

# Part of the list above, reformatted.
binder	measurement	setting	value
B1	glycan array binding signal (z-score)	Gal3S(b1-4)Glc6S	1.86
same	glycan array binding signal (z-score)	GalNAc(b1-4)Gal(b1-4)Glc	0.273
